{"source": "patent US5229412A", "about": "“Method for relieving anxiety using 5-hydroxytryptamine-1A-receptor-binding compounds” (The Board of Trustees of the Leland Stanford Junior …, priority 1988, dated 1993)", "origin": "cited, not measured here", "system": "5-HT1A receptors", "conditions": "background statement; cited from earlier work"}
{"smiles": "CC[C@@H](CO)NC(=O)[C@@H]1C=C2c3cccc4c3c(cn4C)C[C@H]2N(C)C1", "note": "[methylsergide]", "values": [{"measurement": "inhibition of [^3 H]-8-OH-DPAT binding to 5-HT1A receptors (in words)", "result": "potent inhibitors"}]}
